Experimental data as given in patent US20260098102A1.
Results are given in words; binding and its absence hold for the method and conditions named. Some entries that bind do so weakly or less than the wild type. Blank lines part the entries; values can stand above or below the binder they belong to.

Sequences of proteins named here, by UniProt entry; tags and fusion partners are left off. A change or cut given only in a name is not applied to a line headed by its entry.
UniProt P78324: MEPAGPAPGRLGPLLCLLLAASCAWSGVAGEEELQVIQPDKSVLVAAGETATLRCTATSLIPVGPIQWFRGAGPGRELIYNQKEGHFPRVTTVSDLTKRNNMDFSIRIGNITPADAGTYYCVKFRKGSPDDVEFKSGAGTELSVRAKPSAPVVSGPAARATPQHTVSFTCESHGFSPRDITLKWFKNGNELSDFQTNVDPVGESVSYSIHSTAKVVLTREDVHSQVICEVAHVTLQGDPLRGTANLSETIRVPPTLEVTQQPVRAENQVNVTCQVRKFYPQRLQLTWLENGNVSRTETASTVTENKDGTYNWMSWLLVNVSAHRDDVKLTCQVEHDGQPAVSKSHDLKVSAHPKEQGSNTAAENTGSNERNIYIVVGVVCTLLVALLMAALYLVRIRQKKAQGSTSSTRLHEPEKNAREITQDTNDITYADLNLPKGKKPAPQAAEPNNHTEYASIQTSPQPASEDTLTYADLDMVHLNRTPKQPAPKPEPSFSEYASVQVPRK

What was measured:
human SIRPA_V10 (human) [1] = target: human SIRPA_V10 (human) (UniProt P78324); assay: cell-based ELISA, transfected 293α cells
[2] = target: human SIRPA_V2_IgV_IgC1 variant (human) (UniProt P78324); assay: cell-based ELISA, transfected 293α cells, 10,000 ng/mL, normalized to FLAG
human SIRPA_V10 (human) [3] = target: human SIRPA_V10 (human) (UniProt P78324); assay: as above
[4] = target: human SIRPA_V2_IgV_IgC1 variant (human) (UniProt P78324); assay: cell-based ELISA on 293α cells expressing the FLAG-tagged construct, antibody 10,000 ng/mL; Abs 490 normalized to FLAG tag [panel B]
human SIRPA_V10 (human) [5] = target: human SIRPA_V10 (human) (UniProt P78324); assay: cell-based ELISA, transfected 293α cells, 0 to 10,000 ng/ml
human SIRPA_V10 (human) [6] = target: human SIRPA_V10 (human) (UniProt P78324); assay: cell-based ELISA on 293α cells expressing FLAG-tagged SIRPA_V10; Abs 490 normalized to FLAG tag [ii]
human SIRPA_V10 (human) [7] = target: human SIRPA_V10 (human) (UniProt P78324); assay: cell-based ELISA, transfected 293α cells, 0 to 10,000 ng/ml; cD13 is the reference
SIRPA_V2_IgV (human) [8] = assay: gel filtration (Superdex 75) of the complex, then crystallization
SIRPA_V2_IgV (human) [9] = assay: SPR Biacore T200, antibody captured, antigen as analyte

B2: humanized anti-SIRPA antibody hD13_H1L3 (antibody, human IgG4 S228P, kappa, F234A L235A, V domains shown)
VH: QVQLVESGGGVVQPGRSLRLSCAASGFTFSDYGMIWVRQAPGKGLEWVASISSSSSYIYYADSVKGRFTISRDNSKNRLYLQMNSLRAEDTAVYYCARRYYGFNYPFDYWGQGTMVTVSS
VL: DTQLTQSPSSLSASVGQRVTITCGASKSVRTYMHWYQQKPGKQPKLLIYSASNLEAGVPSRFSGSGSGTDFTLTISSLQPEDFATYYCQQSNEPPYTFGQGTKLEIKR
binding (human SIRPA_V10 (human) [5]): binds | binding (human SIRPA_V10 (human) [6]): binds

B3: humanized anti-SIRPA antibody hD13_H1L4 (antibody, human IgG4 S228P, kappa, F234A L235A, V domains shown)
VH: QVQLVESGGGVVQPGRSLRLSCAASGFTFSDYGMIWVRQAPGKGLEWVASISSSSSYIYYADSVKGRFTISRDNSKNRLYLQMNSLRAEDTAVYYCARRYYGFNYPFDYWGQGTMVTVSS
VL: DTVLTQSPDSLAVSLGQRATINCGASKSVRTYMHWYQQKPGQQPKLLIYSASNLEAGVPSRFSGSGSGTDFTLTISSLQAEDVAVYYCQQSNEPPYTFGQGTKVEIKR
binding (human SIRPA_V10 (human) [5]): binds | binding (human SIRPA_V10 (human) [6]): binds

B4: humanized anti-SIRPA antibody hD13_H2L2 (antibody, human IgG4 S228P, kappa, F234A L235A, V domains shown)
VH: EVQLVESGGGVVQPGRSLRLSCAASGFTFSDYGMIWVRQAPGKGLEWVASISSSSSYIYYADSVKGRFTISRDNSKNTLYLQMNSLRAEDTAVYYCARRYYGFNYPFDYWGQGTMVTVSS
VL: AIQLTQSPSSLSASVGQRVTITCGASKSVRTYMHWYQQKPGKAPKLLIYSASNLEAGVPSRFSGSGSGTDFTLTISSLQPEDFATYYCQQSNEPPYTFGQGTKLEIKR
binding (human SIRPA_V10 (human) [5]): binds | binding (human SIRPA_V10 (human) [6]): binds

B6: human chimeric anti-SIRPA antibody cD13 (antibody, human IgG4 S228P, kappa, F234A L235A, V domains shown)
VH: EVQLVESGGGLVQPGRSLKLSCLASGFTFSDYGMIWVRQAPGKGLEWVASISSSSSYIYYADTVKGRFTISRENAKNTLFLHMTSLRSEDTALYYCARRYYGFNYPFDYWGQGVMVTVSS
VL: DTVLTQSPALAVSLGQRVTISCGASKSVRTYMHWYQQKSGQQPKLLIYSASNLEAGVPSRFSGSGSGTDFTLTIDPVEADDIANYYCQQSNEPPYTFGAGTKLELKR
binding (human SIRPA_V10 (human) [6]): binds | binding (human SIRPA_V10 (human) [7]): binds

B9: Fab fragment of the cD13 antibody (Fab, V domains shown)
VH: EVQLVESGGGLVQPGRSLKLSCLASGFTFSDYGMIWVRQAPGKGLEWVASISSSSSYIYYADTVKGRFTISRENAKNTLFLHMTSLRSEDTALYYCARRYYGFNYPFDYWGQGVMVTVSS
VL: DTVLTQSPALAVSLGQRVTISCGASKSVRTYMHWYQQKSGQQPKLLIYSASNLEAGVPSRFSGSGSGTDFTLTIDPVEADDIANYYCQQSNEPPYTFGAGTKLELKR
binding (SIRPA_V2_IgV (human) [8]): binds

B10: OSE-172 (antibody, human IgG4 S228P, kappa, V domains shown)
VH: EVQLVQSGAEVKKPGESLRISCKASGYSFTSYWVHWVRQMPGKGLEWMGNIDPSDSDTHYSPSFQGHVTLSVDKSISTAYLQLSSLKASDTAMYYCVRGGTGTLAYFAYWGQGTLVTVSS
VL: DVVMTQSPLSLPVTLGQPASISCRSSQSLVHSYGNTYLYWFQQRPGQSPRLLIYRVSNRFSGVPDRFSGSGSGTDFTLKISRVEAEDVGVYYCFQGTHVPYTFGGGTKVEIKR
binding (SIRPA_V2_IgV (human) [9]): no binding (tested: antigen 0.25 to 16 nM)

Now from value to binder:

binding (human SIRPA_V10 (human) [1]): binds | binding [2]: binds | binding (human SIRPA_V10 (human) [3]): binds | binding [4]: binds
B1: rat anti-human SIRPA monoclonal antibody F63 (antibody, V domains shown)
VH: QVQLKESGPGLVQPSETLSLTCTVSGFSLASYSLSWVRQPSGKGPEWMGRMYYDGDTAYNSALKSRLSISRDTSKNQVFLKMNSLQTDDTGTYYCTRDRSMFGTDYPHWYFDFWGPGTMVTVSS
VL: QFTLTQPKSVSGALRSTITIPCERSSGDIGDSYVSWYQRHLGRPPINVIYADDQRPSEVSDRFSGSIDSSSNSASLTITNLQMDDEADYFCQSYDSKIDIFGGGTKLTVL

binding (human SIRPA_V10 (human) [5]): binds | binding (human SIRPA_V10 (human) [6]): binds
B5: humanized anti-SIRPA antibody hD13_H2L3 (antibody, human IgG4 S228P, kappa, F234A L235A, V domains shown)
VH: EVQLVESGGGVVQPGRSLRLSCAASGFTFSDYGMIWVRQAPGKGLEWVASISSSSSYIYYADSVKGRFTISRDNSKNTLYLQMNSLRAEDTAVYYCARRYYGFNYPFDYWGQGTMVTVSS
VL: DTQLTQSPSSLSASVGQRVTITCGASKSVRTYMHWYQQKPGKQPKLLIYSASNLEAGVPSRFSGSGSGTDFTLTISSLQPEDFATYYCQQSNEPPYTFGQGTKLEIKR

binding (human SIRPA_V10 (human) [1]): binds | binding [2]: binds | binding (human SIRPA_V10 (human) [3]): binds | binding [4]: binds
B7: rat anti-human SIRPA monoclonal antibody D13 (antibody, V domains shown)
VH: EVQLVESGGGLVQPGRSLKLSCLASGFTFSDYGMIWVRQAPGKGLEWVASISSSSSYIYYADTVKGRFTISRENAKNTLFLHMTSLRSEDTALYYCARRYYGFNYPFDYWGQGVMVTVSS
VL: DTVLTQSPALAVSLGQRVTISCGASKSVRTYMHWYQQKSGQQPKLLIYSASNLEAGVPSRFSGSGSGTDFTLTIDPVEADDIANYYCQQSNEPPYTFGAGTKLELK

binding (human SIRPA_V10 (human) [1]): binds | binding [2]: binds | binding (human SIRPA_V10 (human) [3]): binds | binding [4]: binds
B8: rat anti-human SIRPA monoclonal antibody F44 (antibody, V domains shown)
VH: EVQLVESGGGLVQPGRSLKLSCAASGFTFSNYYMAWVRQAPTKGLEWVTYITTGGGSTYFRDSVKGRFTISRDNAESTLYLQMDSLRSEDTATYYCTAANYGGSYFDYWGQGVMVTVSS
VL: DVQMTQSPSNLAASPGESVSINCKASKSISKYLAWYQQKPGKANKLLIYSGSTLQSGTPSRFSGSGSGTDFTLTIRNLEPEDFGLYYCQQHNEYPPTFGAGTKLELK
